{"source": "paper PMC3889402", "target": "GST-tagged gp78 cytosolic domain", "assay": "pull-down; purified GST-tagged protein immobilised on glutathione beads and incubated with recombinant or purified protein; immunoblotting; both purified", "note": "No constants are given. Whether binding was seen depends on the method and setting. Binding can be weak; no strength is given."}
{"binder": "recombinant USP13 (enzyme, UniProt Q92995 1-863) MQRRGALFGMPGGSGGRKMAAGDIGELLVPHMPTIRVPRSGDRVYKNECAFSYDSPNSEGGLYVCMNTFLAFGREHVERHFRKTGQSVYMHLKRHVREKVRGASGGALPKRRNSKIFLDLDTDDDLNSDDYEYEDEAKLVIFPDHYEIALPNIEELPALVTIACDAVLSSKSPYRKQDPDTWENELPVSKYANNLTQLDNGVRIPPSGWKCARCDLRENLWLNLTDGSVLCGKWFFDSSGGNGHALEHYRDMGYPLAVKLGTITPDGADVYSFQEEEPVLDPHLAKHLAHFGIDMLHMHGTENGLQDNDIKLRVSEWEVIQESGTKLKPMYGPGYTGLKNLGNSCYLSSVMQAIFSIPEFQRAYVGNLPRIFDYSPLDPTQDFNTQMTKLGHGLLSGQYSKPPVKSELIEQVMKEEHKPQQNGISPRMFKAFVSKSHPEFSSNRQQDAQEFFLHLVNLVERNRIGSENPSDVFRFLVEERIQCCQTRKVRYTERVDYLMQLPVAMEAATNKDELIAYELTRREAEANRRPLPELVRAKIPFSACLQAFSEPENVDDFWSSALQAKSAGVKTSRFASFPEYLVVQIKKFTFGLDWVPKKFDVSIDMPDLLDINHLRARGLQPGEEELPDISPPIVIPDDSKDRLMNQLIDPSDIDESSVMQLAEMGFPLEACRKAVYFTGNMGAEVAFNWIIVHMEEPDFAEPLTMPGYGGAASAGASVFGASGLDNQPPEEIVAIITSMGFQRNQAIQALRATNNNLERALDWIFSHPEFEEDSDFVIEMENNANANIISEAKPEGPRVKDGSGTYELFAFISHMGTSTMSGHYICHIKKEGRWVIYNDHKVCASERPPKDLGYMYFYRRIPS", "values": [{"measurement": "binding", "value": "binds"}]}
